Data from patent publication US7737253B2, “Human cancer stem cell culture compositions comprising Erbb2 variants and methods of use thereof” (BresaGen, Inc., priority 2006, dated 2010).
At least one compound was matched to its structure with a doubt left.

Test system: hESCs
Test: hESC proliferation and cell count after treatment with AG825
Format: cell-based, human
Method: Based on the above studies described in Examples 13 and 14, further experiments were performed to quantify the number of hESCs and determine the level of inhibition of Erbb2 using AG825. […] Values reported were taken from an average of the triplicate (3) cell counts. The initial cell count was performed similarly. AG825 inhibited Erbb2 tyrosine kinase activity, thereby inhibiting cell signaling, and effectively reducing and inhibiting HESC proliferation and growth by about at least 1, 2 or 3 orders of magnitude.

## COc1cc(/C=C(\C#N)C(N)=O)cc(CSc2nc3ccccc3s2)c1O [AG825, Tyrphostin AG825]
  reduction and inhibition of hESC proliferation and growth: at least 1, 2 or 3 orders of magnitude
